Reference: PMC7660911
No constants are given. Whether binding was seen depends on the method and setting. In cells and extracts the contact can be indirect. Some entries that bind do so weakly or less than the wild type.

By UniProt entry, the sequences of proteins in these tests, tags left out.
UniProt P40337: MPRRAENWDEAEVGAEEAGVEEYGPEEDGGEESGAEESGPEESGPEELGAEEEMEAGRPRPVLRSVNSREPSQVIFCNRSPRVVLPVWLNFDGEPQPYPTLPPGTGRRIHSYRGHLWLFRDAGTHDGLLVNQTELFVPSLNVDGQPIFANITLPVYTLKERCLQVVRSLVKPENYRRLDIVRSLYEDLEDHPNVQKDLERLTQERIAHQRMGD
UniProt O60925: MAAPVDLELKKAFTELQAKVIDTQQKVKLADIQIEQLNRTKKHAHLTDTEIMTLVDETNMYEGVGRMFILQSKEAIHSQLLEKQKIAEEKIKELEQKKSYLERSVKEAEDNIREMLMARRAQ
UniProt Q99471: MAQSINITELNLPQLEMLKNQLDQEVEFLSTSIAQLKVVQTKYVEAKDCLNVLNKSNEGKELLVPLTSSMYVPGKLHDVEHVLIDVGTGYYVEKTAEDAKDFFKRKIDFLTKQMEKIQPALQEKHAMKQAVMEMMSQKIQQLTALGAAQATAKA

Molecular target: GFP-tagged pVHL213 (VHL213-GFP) (human) (UniProt P40337)
Test: co-IP; GFP-Trap MA beads on lysates of transfected HeLa cells (10 mM Tris HCl pH 7.5, 150 mM NaCl, 0.5 mM EDTA, 0.5% Nonidet P40), 90 min at 4 C; Western blot

binding, binds:
Prefoldin subunit 1 (from UniProt O60925 1-122)
Prefoldin subunit 3 (from UniProt P61758-1 1-197)
Prefoldin subunit 5 (from UniProt Q99471 1-154)
